Results: article PMC7064775, “Cyclic di-GMP Signaling in Bacillus subtilis Is Governed by Direct Interactions of Diguanylate Cyclases and Cognate Receptors” (mBio, 2020)
No constants are given. Whether binding was seen depends on the method and setting. Sequences can lack the tags named with a protein.

Target: T1, GST-His6-DgcK-ΔN175 (Bacillus subtilis NCIB 3610, UniProt P54595 176-359)
T1 construct: Diguanylate cyclase DgcK of Bacillus subtilis NCIB 3610, soluble domain, residues 176 to 359 (construct pAT02a); also called pAT02a; source: E. coli BL21(DE3), purified (Ni-NTA, SEC); not shown: GST, N-terminal, kept; His6, N-terminal, kept
T1 sequence (looked up): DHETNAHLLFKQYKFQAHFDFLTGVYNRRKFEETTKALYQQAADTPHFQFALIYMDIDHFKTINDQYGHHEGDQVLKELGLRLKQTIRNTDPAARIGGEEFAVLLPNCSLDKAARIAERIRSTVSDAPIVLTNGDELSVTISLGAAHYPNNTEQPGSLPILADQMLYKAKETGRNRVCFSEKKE
Test: pull-down; 2 nmol GST-His6-DgcK-ΔN175 immobilised on glutathione-Sepharose 4B, 20 nmol His6-YdaK-ΔN111 or its R202A variant, with or without added c-di-GMP; 4°C, buffer A; Coomassie-stained SDS-PAGE; both purified

B1: His6-YdaK-ΔN111_R202A (domain or fragment, UniProt P96585 112-283)
chain: DITAELRRSMTRLQSEIKSYVAVDRVTGFDNKQRMKLELSEEIKRAERYGNSFVFLLLHMHYFKEFKSLYGEKETDRLFQYVGQQIRTSVAETDKKFRPSDERIGIVLTHTPAEHMPAVLTKLKKQLDTYQLENGKYVSLTFHVCYLPYRNDIQTADQFLEELENEMMMNEL
In the case of B1, the binding is reported as “no binding (tested: 20 nmol)”.
